# Assay results from PubChem BioAssay AID2685 (National Center for Advancing Translational Sciences (NCATS), 2010).
# The list shows a part of the results. Shown are side measurements of this screen, not its main read-out; they come without a call. The list favours compounds with an active or inconclusive main result. Potencies come from curve fits of mixed quality, noted in brackets.
# Assay: qHTS Assay for Lipid Storage Modulators in Drosophila S3 Cells;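 on cell number change: cells counted by Cell Tracker Red CMTPX staining in the red channel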
# Conditions: BODIPY lipid droplet fluorescence, 18-24 h; for cell number change: measured here: cell count max response, cells fed with added oleic acid
# Procedure, shortened: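 Laser-scanning cytometry quantifies lipid droplet accumulation (500–530 nm total intensity; droplet/cell object ratio) in oleic acid-fed (400 uM added) Drosophila S3 cells treated with a concentration series. 20 uM Triacsin C defined 100% inhibition.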
# [1] = measured here: cell number channel AC50, cells fed with added oleic acid
# [2] = measured here: lipid fluorescence (Fed channel) AC50, cells fed with added oleic acid
SMILES,cell number change [%],AC50 [1],AC50 [2]
Cc1ccc(C(=O)NCCOC23CC4CC(CC(C4)C2)C3)cc1,67.9,"29.1 µM [rising, single point]","29.1 µM [rising, single point]"
Cc1[nH]n2c(=O)c3c(nc2c1-c1ccccc1)CCC3,9.92,,
COc1cc(NS(=O)(=O)c2ccc(NS(=O)(=O)c3ccc(C)cc3)cc2)nc(OC)n1,2.56,"0.731 µM [rising, partial curve]","0.116 µM [falling, single point]"
CCc1ccc(C(=O)C(C)OC(=O)c2cccc(S(=O)(=O)N3CCOCC3)c2)cc1 (centres undefined),159,"23.1 µM [rising, partial curve]",
Cc1cc(NCCCN2CCOCC2)n2ncc(-c3ccccc3)c2n1,74.5,"0.58 µM [rising, full curve]","18.4 µM [rising, partial curve]"
COc1ccc(/C=C2\SC(=S)N(NC(=O)c3csc4c3CCCC4)C2=O)cc1,-120,"29.1 µM [falling, single point]",
COc1ccc(NC(=O)CCC(=O)NCc2ccco2)c([N+](=O)[O-])c1,27.7,"0.651 µM [rising, full curve, poor fit]",
Nc1[nH]n(-c2ccccc2)c(=O)c1N=Nc1ccc2c(c1)OCO2,-36.2,"18.4 µM [falling, single point]","13 µM [falling, partial curve]"
Cc1ccc2[nH]c3c(c2c1)CC/C(=C/c1ccccc1)C3=O,-56.1,,"1.46 µM [rising, partial curve]"
COc1ccc(Cl)cc1C(=O)NNC(=O)C1CCCO1 (centres undefined),-108,"4.61 µM [falling, partial curve]",
COc1ccc(O)c(CN2CCC(n3nccc3NC(=O)C3CCCC3)CC2)c1,9.97,,
Cc1cccn2cc(CCNS(=O)(=O)c3ccc4c(c3)OCCO4)nc12,,"3.66 µM [rising, partial curve, poor fit]","3.66 µM [rising, partial curve]"
C=CCc1ccc(OCCn2nnc3ccccc32)c(OC)c1,-30,,
Cc1onc(-c2ccccc2Cl)c1C(=O)NC(=S)Nc1ccccc1C(N)=O,39.3,"23.1 µM [rising, single point]","23.1 µM [rising, single point]"
O=S(c1ccc2ccccc2c1)c1cnns1 (centres undefined),-21.1,,"29.1 µM [falling, single point]"
Cc1ccc(CC2CC(=O)N(c3cc(C)ccc3C)C2=O)cc1 (centres undefined),2.75,,"29.1 µM [falling, single point]"
Cc1ccc(-c2[nH]c3ccccc3c2SCCNC(=O)c2cc3ccccc3oc2=O)cc1,-0.624,,"1.3 µM [rising, full curve, poor fit]"
CCOC(=O)c1cnc(SCC(=O)Nc2cccc(OC)c2)nc1N,5.19,,
CC(=O)Nc1ccc(S(=O)(=O)NC2(C(F)(F)F)C(=O)Nc3c2c(=O)n(C)c(=O)n3C)cc1 (centres undefined),8.81,,"29.1 µM [falling, single point]"
COc1ccc(OCCN(C)CC(=O)Nc2ccccc2SC)cc1,15.3,,
O=C(CSc1nc(NS(=O)(=O)c2ccccc2)cc(=O)[nH]1)Nc1cccc(C(F)(F)F)c1,67.3,"32.6 µM [rising, single point]",

# Entries of single compounds, looked up by structure.
# Cc1cccn2cc(CCNS(=O)(=O)c3ccc4c(c3)OCCO4)nc12 as listed: AC50 [1]: 3.66 µM [rising, partial curve, poor fit]; AC50 [2]: 3.66 µM [rising, partial curve]
# Cc1[nH]n2c(=O)c3c(nc2c1-c1ccccc1)CCC3 as listed: cell number change [%]: 9.92

# Further compounds follow.

SMILES,cell number change [%],AC50 [1],AC50 [2]
Cc1nn(CC2CC2)c(=O)n1-c1ccccc1,-22.4,,"20.6 µM [falling, single point]"
O=C(N/N=C/c1ccc(Cl)cc1Cl)C(=O)NC1CC1,16.1,,
Nc1ccc2oc(-c3cccc(Br)c3)nc2c1,23.9,,"0.164 µM [rising, full curve, poor fit]"
COc1ccc(/C=N/NC(=O)c2cc(C)n(-c3ccccc3)c2C)cc1OC,-1.63,,
CN(C)c1nc(=NCc2ccco2)ss1,-31.5,"9.2 µM [falling, partial curve]","8.2 µM [falling, partial curve]"
CC1(C)C(=O)Nc2ccccc2N1C(=O)COC(=O)c1cccnc1,7.29,,"6.51 µM [rising, single point]"
CCc1cccc(NC(=O)CS(=O)Cc2nc(-c3ccc(C)cc3)oc2C)c1 (centres undefined),,,"0.13 µM [rising, single point]"
Cc1cccc(NC(=O)c2cc(-c3ccc(C)c(C)c3O)n[nH]2)c1,55.3,"29.1 µM [rising, single point]","0.13 µM [rising, full curve]"
CCCCOc1ccc(NC(=O)CN2CCN(CC)CC2)cc1,-26.6,"0.651 µM [falling, full curve, poor fit]","29.1 µM [rising, single point]"
O=S(=O)(Nc1ccc(-c2nc3cccnc3s2)cc1)c1ccc(Cl)s1,40.1,"3.66 µM [rising, full curve]","3.66 µM [rising, full curve]"
O=C(/C=C1\SC(=O)NC1=O)Nc1ccc(C(=O)O)cc1,27.6,,"29.1 µM [falling, single point]"
COc1cc(Nc2nc3ccccc3nc2NS(=O)(=O)c2ccc([N+](=O)[O-])cc2)cc(OC)c1OC,-9.54,,"0.326 µM [rising, partial curve, poor fit]"
CC(=O)Nc1cc2nc(C)n(Cc3ccccc3)c2nc1C,-1.02,,"0.146 µM [rising, full curve, poor fit]"
O=C(c1ccco1)N1CCN(C(=O)c2cc(-c3ccc(F)cc3)no2)CC1,-9.44,,"18.4 µM [falling, single point]"
Cc1nn(Cc2ccccc2)c(Cl)c1/C=C1\NC(=S)NC1=O,-11.3,"1.16 µM [falling, single point]",
CCC(=O)Nc1cccc(NC(=S)NC(=O)c2ccccc2C)c1,,"6.51 µM [rising, single point]","6.51 µM [rising, single point]"
COc1ccc(N2CCn3c2nc2c3c(=O)n(CCCc3ccccc3)c(=O)n2C)cc1,5.89,,"0.206 µM [rising, full curve, poor fit]"
Cc1ncsc1CCC(=O)N1CCCC(C(=O)c2ccc3c(c2)OCO3)C1 (centres undefined),3.88,,"29.1 µM [falling, single point]"
O=C1Nc2ccccc2C1Cc1ccccc1 (centres undefined),,,"1.84 µM [rising, partial curve]"
O=C(c1ccccc1)c1cn[nH]c1-c1ccccc1O,-3.16,,"2.91 µM [falling, single point]"
Cn1c(SCC(=O)NC2CCCC2)nnc1-c1ccc(S(=O)(=O)N2CCOCC2)cc1,-85.3,"18.4 µM [falling, partial curve]","20.6 µM [falling, partial curve]"

SMILES,cell number change [%],AC50 [1],AC50 [2]
COc1ccccc1NC(=O)CC1S/C(=N/N=C2\CCCc3ccccc32)NC1=O (centres undefined),-49.3,"16.4 µM [falling, partial curve, poor fit]",
O=C(c1nn2c(C(F)(F)F)cc(-c3cccs3)nc2c1Cl)N1CCCc2ccccc21,5.47,,"0.13 µM [rising, full curve, poor fit]"
CCOC(=O)c1cc(CN2CCOCC2)oc1-c1ccccc1,-29.4,,
O=C(CSc1ccc2nnc(-c3cccc(F)c3)n2n1)NCC1CCCO1 (centres undefined),29,"1.46 µM [rising, full curve, poor fit]","1.46 µM [rising, partial curve]"
Nc1no[n+]([O-])c1-c1ccccc1,-15.2,,
CCn1c(C)nc2cc(C(=O)N/N=C/c3ccccc3C)ccc21,-26.1,,
CN(C)CCNC(=O)c1cc2c(s1)-c1ccccc1OC2,62.4,"29.1 µM [rising, single point]","29.1 µM [rising, single point]"
COc1ccc(-n2nc(C(=O)NCC(=O)N3CCCC3)c3ccccc3c2=O)cc1,16.7,,
Cc1ccc(C)c(N2CCN(C(=O)c3nn(C)c4c3CS(=O)(=O)c3ccccc3-4)CC2)c1,19.4,,
CCOc1cc(CNn2c(C)nnc2SCC(=O)NC(C)(C)C)ccc1OCC(=O)NC(C)(C)C,-15.9,,"13 µM [falling, single point]"
NC(=O)C1(N2CCCCC2)CCN(C(=S)Nc2ccc(S(N)(=O)=O)cc2)CC1,7.3,,"0.82 µM [falling, single point]"
Nn1c(SCC(=O)NNC(=O)c2ccccc2)nnc1-c1ccccc1F,5.62,,
O=C(Nc1cccc(NC(=O)c2ccc(-c3ccc(Br)cc3)o2)c1)c1ccccc1,76.5,"1.16 µM [rising, full curve]","1.84 µM [rising, partial curve]"
COc1ccc(NS(=O)(=O)c2ccc3c(c2)NC(=O)CO3)cc1,15.7,,
Cc1ccn2c(Nc3ccccc3C)c(-c3cccnc3)nc2c1,39.4,,"29.1 µM [rising, single point]"
COCCCNC(=O)Cn1nnc(-c2ccc(NC(=O)c3ccc(F)cc3)cc2)n1,11.7,,"6.51 µM [rising, single point]"
COc1ccccc1/C=C/C(=O)NCCC1=CCCCC1,-38.4,"23.1 µM [falling, partial curve, poor fit]",
Oc1cc(NCc2cccnc2)ccc1-c1nc2ccccc2o1,-16.2,,
O=C(NC(=S)Nc1ccc(NC(=O)c2ccccc2)cc1)c1ccc(F)cc1,135,"29.1 µM [rising, single point]","0.103 µM [rising, full curve, poor fit]"
